{"source": "patent US12371748B2", "about": "“Genetic markers for predicting responsiveness to therapy with HDL-raising or HDL mimicking agent” (Hoffmann-La Roche Inc., priority 2014, dated 2025)", "test_system": "patients with evidence of coronary artery disease", "experiment": "dal-PLAQUE-2: change in carotid intima-media thickness (B-mode ultrasound) by ADCY9 genotype", "assay_type": "in vivo, human", "excerpt": "The dal-PLAQUE-2 study (Tardif J C et al, Circulation Cardiovascular imaging 2011; 4:319-33) was a phase 3b multicenter, double-blind, randomized, placebo-controlled, parallel group trial designed to evaluate the effect of dalcetrapib on atherosclerotic disease progression in patients with evidence of coronary artery disease and carotid intima media thickness of at least 0.65 mm in the far wall of the common carotid arteries, as assessed by B-mode ultrasonography. A total of 931 patients were randomized to receive dalcetrapib 600 mg daily or matching placebo with intended treatment duration of 24 months. However, the trial was terminated prematurely concurrent with the termination of dal OUTCOMES (the latter due to futility). Patients continued study medication until they returned for follow-up carotid imaging at 12 months. Carotid B-mode ultrasound recordings at baseline, month 6, and month 12 were analyzed centrally at the core laboratory of the Montreal Heart Institute. Intima-media thickness (IMT) was analyzed on the far wall of the common carotid arteries. A segment of 10 mm in length of the common carotid artery was analyzed on serial examinations using an automated edge detection software (Carotid Analyzer, Medical Imaging Applications, Coralville, Iowa). Among the 411 participants in the dal-PLAQUE-2 trial who consented to the genetic study, 386 had imaging measures at baseline, 6 months and 12 months (194 and 192 in the dalcetrapib and placebo arms respectively). DNA was extracted from whole blood. The research protocols were approved by the relevant institutional review boards or ethics committees and all human participants gave written informed consent.\nAll acquired carotid ultrasound recordings were analyzed at the core laboratory of the Montreal Heart Institute by experienced technicians supervised by a physician. Images were required to meet quality and inclusion and exclusion criteria for eligibility prior to random assignment to study treatment. The methods for carotid intima-media thickness analysis included side-by-side viewing of baseline and follow-up studies.\nCarotid arterial wall segments were assessed in a longitudinal view, perpendicular to the ultrasound beam, with a horizontal display of the arterial image in order to view the interfaces between blood and vascular structures on the longest possible segment. The localization of the end of the common carotid artery was used as the landmark in repositioning and analyzing comparative length of segments in baseline and follow-up studies. Intima-media thickness was analyzed on the far wall of the right and left common carotid arteries, to reduce variability of measurements. The average of the mean intima-media thickness values of the right and left common carotid arteries was used. A matched segment of 10 mm in length of the common carotid artery was analyzed on serial examinations (baseline, 6 months and 12 months), starting 5 mm proximal to the carotid bifurcation. The edge detection software Carotid Analyzer (Medical Imaging Applications LLC, Coralville, Iowa) was used to analyze intima-media thickness using the automated option. Two sets of carotid artery borders were identified: First, the media-adventitia borders were determined and verified by the reader. When required, their locations were semi-automatically modified to the correct location. When these borders were approved, the lumen-intima boundaries were automatically detected using the media-adventitia borders for guidance. Frames from looped sequences of intima-media thickness were selected for reading, and poor quality outlier frames were removed from the analysis when required.\nFor the dal-Plaque-2 population, mixed regression models for repeated measures analysis were tested in SAS software. The dal-Plaque-2 tested endpoint was the mean of IMT measures of common carotid arteries at the 6-month and the 12-month visits, using the baseline measure as covariate. […]", "note": "The source gives many values for each of these; only a part stands here.", "data": [{"molecule": "CCC(CC)CC1(C(=O)Nc2ccccc2SC(=O)C(C)C)CCCCC1", "note": "[dalcetrapib, thioisobutyric acid S-(2-{[1-(2-ethyl-butyl)-cyclohexanecarbonyl]-amino}-phenyl) ester]", "values": [{"measurement": "Change from baseline in carotid intima-media thickness, Mean", "setting": "rs1967309, heterozygotes, M06", "value": "−0.003", "unit": "mm"}, {"measurement": "Change from baseline in carotid intima-media thickness, Mean", "setting": "rs1967309, homozygotes for minor allele, M06", "value": "−0.005", "unit": "mm"}, {"measurement": "Change from baseline in carotid intima-media thickness, Mean", "setting": "rs2283497, homozygotes for major allele, M06", "value": 0.001, "unit": "mm"}, {"measurement": "Change from baseline in carotid intima-media thickness, Mean", "setting": "rs2283497, homozygotes for major allele, M12", "value": "−0.007", "unit": "mm"}, {"measurement": "Change from baseline in carotid intima-media thickness, Mean", "setting": "rs2531967, homozygotes for major allele, M06", "value": 0.005, "unit": "mm"}, {"measurement": "Change from baseline in carotid intima-media thickness, Mean", "setting": "rs2531967, homozygotes for major allele, M12", "value": 0.004, "unit": "mm"}, {"measurement": "Change from baseline in carotid intima-media thickness, Mean", "setting": "rs3730119, homozygotes for major allele, M06", "value": "−0.000", "unit": "mm"}, {"measurement": "Change from baseline in carotid intima-media thickness, Mean", "setting": "rs3730119, homozygotes for major allele, M12", "value": "−0.002", "unit": "mm"}, {"measurement": "Change from baseline in carotid intima-media thickness, Mean", "setting": "rs4786454, homozygotes for major allele, M06", "value": 0.004, "unit": "mm"}, {"measurement": "Change from baseline in carotid intima-media thickness, Mean", "setting": "rs4786454, homozygotes for major allele, M12", "value": 0.003, "unit": "mm"}, {"measurement": "Change from baseline in carotid intima-media thickness, Mean", "setting": "rs8061182, homozygotes for major allele, M06", "value": "−0.009", "unit": "mm"}, {"measurement": "Change from baseline in carotid intima-media thickness, Mean", "setting": "rs8061182, homozygotes for major allele, M12", "value": "−0.014", "unit": "mm"}, {"measurement": "Change from baseline in carotid intima-media thickness, Mean", "setting": "rs13337675, homozygotes for major allele, M06", "value": "−0.003", "unit": "mm"}, {"measurement": "Change from baseline in carotid intima-media thickness, Mean", "setting": "rs13337675, homozygotes for major allele, M12", "value": "−0.005", "unit": "mm"}, {"measurement": "Change from baseline in carotid intima-media thickness, Mean", "setting": "rs17136707, homozygotes for major allele, M06", "value": 0.002, "unit": "mm"}, {"measurement": "Change from baseline in carotid intima-media thickness, Mean", "setting": "rs17136707, homozygotes for major allele, M12", "value": "−0.001", "unit": "mm"}, {"measurement": "Change from baseline in carotid intima-media thickness, Mean", "setting": "rs74702385, homozygotes for major allele, M06", "value": 0.002, "unit": "mm"}, {"measurement": "Change from baseline in carotid intima-media thickness, Mean", "setting": "rs74702385, homozygotes for major allele, M12", "value": "−0.001", "unit": "mm"}, {"measurement": "Change from baseline in carotid intima-media thickness, Mean", "setting": "rs111590482, homozygotes for major allele, M06", "value": 0.002, "unit": "mm"}, {"measurement": "Change from baseline in carotid intima-media thickness, Mean", "setting": "rs111590482, homozygotes for major allele, M12", "value": "−0.001", "unit": "mm"}]}]}
